Reference: PubChem BioAssay AID1159596 (NIAID, 2016)
Purpose: 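Which toll-like receptor signalling genes are needed for TNF promoter activity driven by peptidoglycan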 (primary screen). Cell system: human THP1 B5 monocytic reporter cells made macrophage-like with PMA. Reagents: single siRNA against human genes. Time to read-out: assayed 48 to 72 hours after siRNA transfection; peptidoglycan stimulation lasted 4 hours. Treatment: Staphylococcus aureus peptidoglycan for 4 hours; dose not given. Read-out: 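Mean over replicate screens of a robust z per siRNA from the dual luciferase TNF promoter reporter after 4 h peptidoglycan, median/MAD normalised, relative to negative controls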. Reading the numbers: TNF reporter z-score: higher = stronger TNF promoter reporter response to peptidoglycan. Active means: In these data the active calls have TNF reporter z-score, replicate mean at about -1.5 or lower, or at about 1.5 or higher. Meaning of the calls: active = reporter shifted beyond cut (either direction); inactive = reporter near control level.
Here is an unselected part of 756 reagents tested. Over the whole deposit, 143 (19%) were called active. 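Active means the reporter moved past about ±1.5 in either direction; scores are per single siRNA, not per gene; peptidoglycan dose not given.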 Reagents against one gene are numbered here. Reagent sequences are not shown. Not stated in the record: the amount of reagent.

TLR7 (toll like receptor 7) #1 → TNF reporter z-score, replicate mean: -0.525; call: inactive
TLR7 (toll like receptor 7) #2 → TNF reporter z-score, replicate mean: 1.56; call: active
TLR7 (toll like receptor 7) #3 → TNF reporter z-score, replicate mean: -1.25; call: inactive
TLR7 (toll like receptor 7) #4 → TNF reporter z-score, replicate mean: -0.858; call: inactive
TLR7 (toll like receptor 7) #5 → TNF reporter z-score, replicate mean: -0.0173; call: inactive
TLR7 (toll like receptor 7) #6 → TNF reporter z-score, replicate mean: 0.174; call: inactive
ATF7 (activating transcription factor 7) #1 → TNF reporter z-score, replicate mean: -2.01; call: active
ATF7 (activating transcription factor 7) #2 → TNF reporter z-score, replicate mean: -0.429; call: inactive
ATF7 (activating transcription factor 7) #3 → TNF reporter z-score, replicate mean: -0.78; call: inactive
ATF7 (activating transcription factor 7) #4 → TNF reporter z-score, replicate mean: -0.33; call: inactive
ATF7 (activating transcription factor 7) #5 → TNF reporter z-score, replicate mean: -2.06; call: active
ATF7 (activating transcription factor 7) #6 → TNF reporter z-score, replicate mean: -0.469; call: inactive
TNFAIP3 (TNF alpha induced protein 3) #1 → TNF reporter z-score, replicate mean: -1.94; call: active
TNFAIP3 (TNF alpha induced protein 3) #2 → TNF reporter z-score, replicate mean: -0.36; call: inactive
TNFAIP3 (TNF alpha induced protein 3) #3 → TNF reporter z-score, replicate mean: -3.26; call: active
TNFAIP3 (TNF alpha induced protein 3) #4 → TNF reporter z-score, replicate mean: -0.767; call: inactive
TNFAIP3 (TNF alpha induced protein 3) #5 → TNF reporter z-score, replicate mean: 0.27; call: inactive
TNFAIP3 (TNF alpha induced protein 3) #6 → TNF reporter z-score, replicate mean: -1.59; call: active
PIK3R1 (phosphoinositide-3-kinase regulatory subunit 1) #1 → TNF reporter z-score, replicate mean: -0.793; call: inactive
PIK3R1 (phosphoinositide-3-kinase regulatory subunit 1) #2 → TNF reporter z-score, replicate mean: 0.157; call: inactive
PIK3R1 (phosphoinositide-3-kinase regulatory subunit 1) #3 → TNF reporter z-score, replicate mean: 0.171; call: inactive
PIK3R1 (phosphoinositide-3-kinase regulatory subunit 1) #4 → TNF reporter z-score, replicate mean: 0.874; call: inactive
PIK3R1 (phosphoinositide-3-kinase regulatory subunit 1) #5 → TNF reporter z-score, replicate mean: -2.3; call: active
PIK3R1 (phosphoinositide-3-kinase regulatory subunit 1) #6 → TNF reporter z-score, replicate mean: 0.376; call: inactive

Records above whose target name starts with P or p (6):
PIK3R1 (phosphoinositide-3-kinase regulatory subunit 1) #1 → TNF reporter z-score, replicate mean: -0.793; call: inactive
PIK3R1 (phosphoinositide-3-kinase regulatory subunit 1) #2 → TNF reporter z-score, replicate mean: 0.157; call: inactive
PIK3R1 (phosphoinositide-3-kinase regulatory subunit 1) #3 → TNF reporter z-score, replicate mean: 0.171; call: inactive
PIK3R1 (phosphoinositide-3-kinase regulatory subunit 1) #4 → TNF reporter z-score, replicate mean: 0.874; call: inactive
PIK3R1 (phosphoinositide-3-kinase regulatory subunit 1) #5 → TNF reporter z-score, replicate mean: -2.3; call: active
PIK3R1 (phosphoinositide-3-kinase regulatory subunit 1) #6 → TNF reporter z-score, replicate mean: 0.376; call: inactive

Continued.
LY96 (lymphocyte antigen 96) #1 → TNF reporter z-score, replicate mean: -0.0761; call: inactive
LY96 (lymphocyte antigen 96) #2 → TNF reporter z-score, replicate mean: 0.643; call: inactive
LY96 (lymphocyte antigen 96) #3 → TNF reporter z-score, replicate mean: 1.38; call: inactive
LY96 (lymphocyte antigen 96) #4 → TNF reporter z-score, replicate mean: -0.873; call: inactive
LY96 (lymphocyte antigen 96) #5 → TNF reporter z-score, replicate mean: -0.279; call: inactive
LY96 (lymphocyte antigen 96) #6 → TNF reporter z-score, replicate mean: -0.111; call: inactive
LBP (lipopolysaccharide binding protein) #1 → TNF reporter z-score, replicate mean: -0.631; call: inactive
LBP (lipopolysaccharide binding protein) #2 → TNF reporter z-score, replicate mean: -0.111; call: inactive
LBP (lipopolysaccharide binding protein) #3 → TNF reporter z-score, replicate mean: 1.79; call: active
LBP (lipopolysaccharide binding protein) #4 → TNF reporter z-score, replicate mean: -0.583; call: inactive
LBP (lipopolysaccharide binding protein) #5 → TNF reporter z-score, replicate mean: 0.17; call: inactive
LBP (lipopolysaccharide binding protein) #6 → TNF reporter z-score, replicate mean: 0.156; call: inactive
